In the supplement of paper PMC12819154, “High-throughput peptide-centric local stability assay extends protein–ligand identification to membrane proteins, tissues and bacteria” (Nature Structural & Molecular Biology, 2025):
The list shows a part of the results. Most values lie at the level of the controls, where differences are scatter.

Protein sequences, listed by entry. Tags and fused reporters are not part of them. Lines headed by an entry give the natural chain unless they say otherwise; changes in a name come on top.
UniProt Q6NZ36: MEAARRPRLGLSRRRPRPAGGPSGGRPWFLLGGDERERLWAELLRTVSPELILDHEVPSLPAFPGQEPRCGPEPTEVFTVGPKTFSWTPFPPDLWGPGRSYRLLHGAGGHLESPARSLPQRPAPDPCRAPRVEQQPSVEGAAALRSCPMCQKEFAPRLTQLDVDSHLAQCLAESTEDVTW
UniProt Q6DCA0: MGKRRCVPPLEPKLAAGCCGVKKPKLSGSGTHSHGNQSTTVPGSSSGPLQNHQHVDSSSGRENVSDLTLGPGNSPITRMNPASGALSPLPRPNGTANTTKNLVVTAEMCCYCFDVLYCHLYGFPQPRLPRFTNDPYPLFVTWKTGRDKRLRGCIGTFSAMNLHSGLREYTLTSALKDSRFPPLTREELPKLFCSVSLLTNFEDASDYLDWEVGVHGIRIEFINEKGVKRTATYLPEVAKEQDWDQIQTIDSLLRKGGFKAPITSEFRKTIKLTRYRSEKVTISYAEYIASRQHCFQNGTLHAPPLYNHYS
UniProt Q6NZ67, whole entry: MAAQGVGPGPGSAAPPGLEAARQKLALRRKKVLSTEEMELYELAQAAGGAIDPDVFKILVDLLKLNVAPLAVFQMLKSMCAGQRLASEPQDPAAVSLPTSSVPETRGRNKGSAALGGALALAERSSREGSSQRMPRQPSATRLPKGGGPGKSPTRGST
UniProt Q6YP21: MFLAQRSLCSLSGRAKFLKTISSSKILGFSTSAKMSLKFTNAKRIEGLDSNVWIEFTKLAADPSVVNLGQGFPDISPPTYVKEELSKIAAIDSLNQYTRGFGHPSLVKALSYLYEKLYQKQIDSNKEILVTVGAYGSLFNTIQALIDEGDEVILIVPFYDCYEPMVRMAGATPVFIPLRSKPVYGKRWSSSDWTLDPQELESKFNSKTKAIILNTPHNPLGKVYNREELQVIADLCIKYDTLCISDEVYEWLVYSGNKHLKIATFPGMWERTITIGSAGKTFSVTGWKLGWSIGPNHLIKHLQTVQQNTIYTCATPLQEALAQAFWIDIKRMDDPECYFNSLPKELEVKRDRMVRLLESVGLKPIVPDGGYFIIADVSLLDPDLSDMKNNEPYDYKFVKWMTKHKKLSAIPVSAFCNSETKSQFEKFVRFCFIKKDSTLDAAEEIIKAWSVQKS
UniProt Q69YN2: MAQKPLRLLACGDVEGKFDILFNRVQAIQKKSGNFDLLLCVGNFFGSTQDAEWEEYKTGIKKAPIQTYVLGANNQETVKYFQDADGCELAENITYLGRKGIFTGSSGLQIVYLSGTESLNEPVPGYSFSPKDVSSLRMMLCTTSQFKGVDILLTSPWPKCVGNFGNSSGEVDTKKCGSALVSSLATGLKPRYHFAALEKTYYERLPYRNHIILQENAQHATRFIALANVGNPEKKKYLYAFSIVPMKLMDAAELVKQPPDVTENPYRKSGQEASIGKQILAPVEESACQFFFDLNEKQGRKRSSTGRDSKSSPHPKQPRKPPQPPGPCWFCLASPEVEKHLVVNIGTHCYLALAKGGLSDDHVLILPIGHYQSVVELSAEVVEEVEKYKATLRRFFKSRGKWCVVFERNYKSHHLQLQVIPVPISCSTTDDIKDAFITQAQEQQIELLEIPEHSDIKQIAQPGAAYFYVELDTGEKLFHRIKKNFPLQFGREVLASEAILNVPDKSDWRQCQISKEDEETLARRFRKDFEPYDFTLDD
UniProt Q6NVV7: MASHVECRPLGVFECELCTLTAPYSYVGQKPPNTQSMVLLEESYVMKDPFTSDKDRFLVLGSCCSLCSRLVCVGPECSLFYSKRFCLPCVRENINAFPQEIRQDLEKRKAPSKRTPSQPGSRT
UniProt Q6L9T8, whole entry: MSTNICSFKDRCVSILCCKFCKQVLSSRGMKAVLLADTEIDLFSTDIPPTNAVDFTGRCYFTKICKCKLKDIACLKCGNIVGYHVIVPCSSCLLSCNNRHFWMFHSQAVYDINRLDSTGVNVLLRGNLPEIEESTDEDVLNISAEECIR
UniProt Q6NTE8: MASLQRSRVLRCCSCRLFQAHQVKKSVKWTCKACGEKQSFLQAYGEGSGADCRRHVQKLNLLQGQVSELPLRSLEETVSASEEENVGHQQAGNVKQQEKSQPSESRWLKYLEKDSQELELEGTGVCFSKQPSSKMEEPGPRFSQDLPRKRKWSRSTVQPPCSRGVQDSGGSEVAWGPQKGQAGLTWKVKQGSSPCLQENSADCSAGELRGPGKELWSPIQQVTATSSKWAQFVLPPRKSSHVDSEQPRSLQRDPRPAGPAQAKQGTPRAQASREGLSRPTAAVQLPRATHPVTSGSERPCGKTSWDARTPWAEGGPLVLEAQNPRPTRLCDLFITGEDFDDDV

Compound: CN[C@@H]1C[C@H]2O[C@@](C)([C@@H]1OC)n1c3ccccc3c3c4c(c5c6ccccc6n2c5c31)C(=O)NC4 [staurosporine]
Assay: log2 fold change of tryptic peptide abundance, ligand vs vehicle (limited proteolysis) (log2 ratio); higher = more trypsin-susceptible (destabilized)
Details: ligand concentration: 20 uM; sample: K562 cleared lysate; digestion: 4 min, 22 C (HT-PELSA RT4min, Orbitrap Astral)

Target | log2 fold change
FAAP20 (peptide sequence: LLHGAGGHLESPAR, peptide start residue: 103) (UniProt Q6NZ36) | 0.373
AMMECR1L (peptide sequence: ENVSDLTLGPGNSPITR, peptide start residue: 62) (UniProt Q6DCA0) | -0.237
MZT2B (peptide sequence: GSAALGGALALAER, peptide start residue: 111) (UniProt Q6NZ67) | -0.127
UniProt Q6YP21 (peptide sequence: KLSAIPVSAFCNSETK, peptide start residue: 406) | 0.215
CWF19L1 (peptide sequence: SHHLQLQVIPVPISCSTTDDIK, peptide start residue: 412) (UniProt Q69YN2) | -0.609
UniProt Q6NVV7 (peptide sequence: LVCVGPECSLFYSKR, peptide start residue: 70) | -0.192
UniProt Q6L9T8 (peptide sequence: LDSTGVNVLLR, peptide start residue: 115) | 0.0924
MRNIP (peptide sequence: QSFLQAYGEGSGADCRR, peptide start residue: 38) (UniProt Q6NTE8) | -0.832

Rewritten tab-delimited: part of the list above.
Target	log2 fold change
MZT2B (peptide sequence: GSAALGGALALAER, peptide start residue: 111) (UniProt Q6NZ67)	-0.127
CWF19L1 (peptide sequence: SHHLQLQVIPVPISCSTTDDIK, peptide start residue: 412) (UniProt Q69YN2)	-0.609
